The conditions of data set [1]: octanol/water, pH 6.5.
The conditions of data set [2]: octanol/water.
The conditions of data set [3]: octanol/water, pH 6.5. The source holds these as a separate data set.
For data set [4] the following is noted: octanol/water. This is another data set of the same source.

Take `COC(=O)C1=C(C)NC(C)=C(C(=O)OC)C1c1ccccc1[N+](=O)[O-]` [NIFEDIPINE]: the logD (commonly the decadic logarithm of the distribution of all forms, ionised or not, between an organic phase and buffer at a given pH) in data set [1] stood at 0.42. Further, the “delta logD” value in data set [2] is listed as 0.
Consider `Nc1nc2ccc(OC(F)(F)F)cc2s1` [RILUZOLE], for which the logD in data set [3] came to 1.23. Moreover, the “delta logD” value in data set [4] was -0.25.

The record behind these values is ChEMBL document CHEMBL1133765, “QSAR model for drug human oral bioavailability” (J Med Chem, 2000).
